## Cleaved PARP after 72 h of treatment

Values as published with doi:10.1371/journal.pone.0140310, rounded.

All values are for the listed drug together with veliparib (7 µM): C[C@]1(c2nc3c(C(N)=O)cccc3[nH]2)CCCN1

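Human melanoma cells were exposed to a pair of drugs for 72 h in 1,536-well plates and read by automated microscopy after fixing and staining. The read-out is the fraction of cleaved-PARP-positive nuclei, in % of that fraction in the DMSO control; 200 means twice the control level of this apoptosis marker. Every drug was used at one fixed concentration, the higher of two screened. No replicate spread is given; individual values may be noisy. The marker varies much from line to line, for technical or biological reasons.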 Only some of the drugs and lines screened are listed, without regard to their results.

{"second drug": "Clc1ccc(Nc2nnc(Cc3ccncc3)c3ccccc23)cc1 at 10 µM", "A101D": 86.2, "IST-MEL1": 72.8, "MeWo": 134, "SK-MEL-28": 147, "WM3619": 201, "A2058": 158, "COLO 829": 88.6, "WM1716": 111}
{"second drug": "Cc1cc(Nc2cc(N3CCN(C)CC3)nc(Sc3ccc(NC(=O)C4CC4)cc3)n2)n[nH]1 at 0.03 µM", "A101D": 98.1, "IST-MEL1": 160, "MeWo": 113, "SK-MEL-28": 42.7, "WM3619": 140, "A2058": 218, "COLO 829": 225, "WM1716": 55.6}
{"second drug": "CN(c1ncccc1CNc1nc(Nc2ccc3c(c2)CC(=O)N3)ncc1C(F)(F)F)S(C)(=O)=O at 0.4 µM", "A101D": 74.7, "IST-MEL1": 76.8, "MeWo": 130, "SK-MEL-28": 261, "WM3619": 110, "A2058": 354, "COLO 829": 193, "WM1716": 221}
{"second drug": "COc1ccc2c(c1)CCC1C2CCC2(C)C(NCCCCCCN3C(=O)C=CC3=O)CCC12 (stereo unspecified) at 2 µM", "A101D": 112, "IST-MEL1": 144, "MeWo": 125, "SK-MEL-28": 110, "WM3619": 215, "A2058": 180, "COLO 829": 32.7, "WM1716": 194}
{"second drug": "c1cc(-c2cnn3cc(-c4ccc(OCCN5CCCCC5)cc4)cnc23)ccn1 at 2 µM", "A101D": 66.5, "IST-MEL1": 113, "MeWo": 167, "SK-MEL-28": 264, "WM3619": 165, "A2058": 395, "COLO 829": 25.5, "WM1716": 43.7}
{"second drug": "COc1cc(Nc2ncc(F)c(Nc3ccc4c(n3)NC(=O)C(C)(C)O4)n2)cc(OC)c1OC at 2 µM", "A101D": 229, "IST-MEL1": 318, "MeWo": 211, "SK-MEL-28": 91.2, "WM3619": 128, "A2058": 167, "COLO 829": 26.0, "WM1716": 287}
{"second drug": "CC(C)CCN1c2nc(Nc3cc(F)c(O)c(F)c3)ncc2N(C)C(=O)C1C (stereo unspecified) at 1 µM", "A101D": 68.3, "IST-MEL1": 134, "MeWo": 106, "SK-MEL-28": 147, "WM3619": 119, "A2058": 275, "COLO 829": 25.7, "WM1716": 136}
{"second drug": "Oc1cc(-c2nc(-c3ccccc3)[nH]c2-c2ccncc2)ccc1Cl at 1 µM", "A101D": 106, "IST-MEL1": 185, "MeWo": 92.5, "SK-MEL-28": 292, "WM3619": 111, "A2058": 90.6, "COLO 829": 362, "WM1716": 52.5}
{"second drug": "O=C(O)c1ccc(-c2c[nH]c3ncc(-c4ccccc4)cc23)cc1C1CCCC1 at 0.8 µM", "A101D": 115, "IST-MEL1": 149, "MeWo": 90.7, "SK-MEL-28": 122, "WM3619": 150, "A2058": 147, "COLO 829": 149, "WM1716": 107}
{"second drug": "O=C(Nc1cccc(Cl)c1)Nc1ncc(CCNc2ncnc3ccsc23)s1 at 0.004 µM", "A101D": 141, "IST-MEL1": 195, "MeWo": 104, "SK-MEL-28": 97.5, "WM3619": 141, "A2058": 192, "COLO 829": 47.8, "WM1716": 162}
{"second drug": "CC(C)(C)c1cnc(CSc2cnc(NC(=O)C3CCNCC3)s2)o1 at 0.05 µM", "A101D": 151, "IST-MEL1": 82.8, "MeWo": 101, "SK-MEL-28": 168, "WM3619": 99.6, "A2058": 78.0, "COLO 829": 120, "WM1716": 200}
{"second drug": "C[C@]1(O)C[C@@H](c2nc(-c3ccc4ccc(-c5ccccc5)nc4c3)c3c(N)nccn32)C1 at 2 µM", "A101D": 229, "IST-MEL1": 100, "MeWo": 116, "SK-MEL-28": 213, "WM3619": 108, "A2058": 160, "COLO 829": 135, "WM1716": 118}
{"second drug": "O=C(Nc1ccccc1)c1cc([N+](=O)[O-])ccc1Cl at 10 µM", "A101D": 117, "IST-MEL1": 29.9, "MeWo": 158, "SK-MEL-28": 347, "WM3619": 159, "A2058": 290, "COLO 829": 121, "WM1716": 95.3}
{"second drug": "COc1cc2c(Oc3ccc4[nH]c(C)cc4c3F)ncnc2cc1OCCCN1CCCC1 at 2 µM", "A101D": 243, "IST-MEL1": 218, "MeWo": 102, "SK-MEL-28": 93.7, "WM3619": 115, "A2058": 223, "COLO 829": 166, "WM1716": 96.2}
{"second drug": "NC1(c2ccc(-c3nc4ccn5c(=O)[nH]nc5c4cc3-c3ccccc3)cc2)CCC1 at 2 µM", "A101D": 86.9, "IST-MEL1": 81.4, "MeWo": 28.4, "SK-MEL-28": 50.1, "WM3619": 114, "A2058": 192, "COLO 829": 156, "WM1716": 164}
{"second drug": "C[C@@H]1CCN(C(=O)CC#N)C[C@@H]1N(C)c1ncnc2[nH]ccc12 at 5 µM", "A101D": 37.6, "IST-MEL1": 60.5, "MeWo": 97.2, "SK-MEL-28": 173, "WM3619": 258, "A2058": 92.4, "COLO 829": 85.6, "WM1716": 125}
{"second drug": "Nc1cccc2c1CN(C1CCC(=O)NC1=O)C2=O (stereo unspecified) at 5 µM", "A101D": 72.2, "IST-MEL1": 63.9, "MeWo": 27.8, "SK-MEL-28": 30.3, "WM3619": 99.6, "A2058": 105, "COLO 829": 169, "WM1716": 61.1}
{"second drug": "Cn1c(Nc2ccc(C(F)(F)F)cc2)nc2cc(Oc3ccnc(-c4ncc(C(F)(F)F)[nH]4)c3)ccc21 at 0.4 µM", "A101D": 215, "IST-MEL1": 68.6, "MeWo": 84.2, "SK-MEL-28": 295, "WM3619": 263, "A2058": 211, "COLO 829": 138, "WM1716": 104}
{"second drug": "NC(=O)Nc1cc(-c2cccc(F)c2)sc1C(=O)N[C@H]1CCCNC1 at 0.1 µM", "A101D": 163, "IST-MEL1": 36.8, "MeWo": 346, "SK-MEL-28": 340, "WM3619": 617, "A2058": 629, "COLO 829": 74.4, "WM1716": 266}
{"second drug": "C/C(O)=C(\\C#N)C(=O)Nc1cc(Br)ccc1Br at 10 µM", "A101D": 125, "IST-MEL1": 61.0, "MeWo": 34.3, "SK-MEL-28": 57.2, "WM3619": 114, "A2058": 94.3, "COLO 829": 124, "WM1716": 59.9}
{"second drug": "CS(=O)(=O)CCNCc1ccc(-c2ccc3ncnc(Nc4ccc(OCc5cccc(F)c5)c(Cl)c4)c3c2)o1 at 4 µM", "A101D": 62.7, "IST-MEL1": 48.3, "MeWo": 157, "SK-MEL-28": 161, "WM3619": 142, "A2058": 202, "COLO 829": 86.4, "WM1716": 37.9}
{"second drug": "CCCCCCCCCCCCCCCCCCOP(=O)([O-])OC1CC[N+](C)(C)CC1 at 2 µM", "A101D": 134, "IST-MEL1": 174, "MeWo": 58.8, "SK-MEL-28": 94.9, "WM3619": 122, "A2058": 184, "COLO 829": 97.6, "WM1716": 94.1}
{"second drug": "Cn1cnc2c(F)c(Nc3ccc(Br)cc3Cl)c(C(=O)NOCCO)cc21 at 0.075 µM", "A101D": 75.4, "IST-MEL1": 218, "MeWo": 91.5, "SK-MEL-28": 30.4, "WM3619": 138, "A2058": 104, "COLO 829": 140, "WM1716": 68.5}
{"second drug": "Cc1cn(-c2cc(NC(=O)c3ccc(C)c(Nc4nccc(-c5cccnc5)n4)c3)cc(C(F)(F)F)c2)cn1 at 1 µM", "A101D": 71.2, "IST-MEL1": 27.4, "MeWo": 84.6, "SK-MEL-28": 55.0, "WM3619": 130, "A2058": 139, "COLO 829": 192, "WM1716": 98.8}
{"second drug": "O=C1NC(=O)/C(=C/c2ccc(-c3ccc(F)cc3O)o2)S1 at 5 µM", "A101D": 106, "IST-MEL1": 180, "MeWo": 34.2, "SK-MEL-28": 171, "WM3619": 141, "A2058": 157, "COLO 829": 204, "WM1716": 70.5}
{"second drug": "Cn1cc(/C=C2\\C(=O)Nc3cccnc32)c2ccccc21 at 2 µM", "A101D": 61.8, "IST-MEL1": 106, "MeWo": 126, "SK-MEL-28": 48.8, "WM3619": 121, "A2058": 140, "COLO 829": 141, "WM1716": 49.4}
{"second drug": "CS(=O)(=O)c1ccc(C(=O)Nc2ccc(Cl)c(-c3ccccn3)c2)c(Cl)c1 at 5 µM", "A101D": 66.2, "IST-MEL1": 178, "MeWo": 47.4, "SK-MEL-28": 64.0, "WM3619": 113, "A2058": 128, "COLO 829": 188, "WM1716": 50.7}
{"second drug": "Cc1nc(Nc2ncc(C(=O)Nc3c(C)cccc3Cl)s2)cc(N2CCN(CCO)CC2)n1 at 0.02 µM", "A101D": 147, "IST-MEL1": 59.1, "MeWo": 93.0, "SK-MEL-28": 37.9, "WM3619": 149, "A2058": 250, "COLO 829": 188, "WM1716": 206}
{"second drug": "CCCCCCCCCCCC1=C(O)C(=O)C=C(O)C1=O at 6 µM", "A101D": 175, "IST-MEL1": 93.6, "MeWo": 63.2, "SK-MEL-28": 183, "WM3619": 136, "A2058": 114, "COLO 829": 108, "WM1716": 39.5}
{"second drug": "O=C(Nc1cc(C(F)(F)F)cc(C(F)(F)F)c1)c1cc(Cl)ccc1O at 0.08 µM", "A101D": 16.8, "IST-MEL1": 51.3, "MeWo": 123, "SK-MEL-28": 78.2, "WM3619": 92.0, "A2058": 123, "COLO 829": 213, "WM1716": 95.3}
{"second drug": "O=C(O)c1ccc2c(c1)nc(Nc1cccc(Cl)c1)c1ccncc12 at 2 µM", "A101D": 83.4, "IST-MEL1": 111, "MeWo": 79.3, "SK-MEL-28": 164, "WM3619": 132, "A2058": 230, "COLO 829": 616, "WM1716": 150}
{"second drug": "Nc1ncn([C@H]2C[C@H](O)[C@@H](CO)O2)c(=O)n1 at 0.5 µM", "A101D": 94.9, "IST-MEL1": 210, "MeWo": 156, "SK-MEL-28": 73.8, "WM3619": 153, "A2058": 577, "COLO 829": 101, "WM1716": 76.2}
{"second drug": "O=C(CCCCCCC(=O)Nc1ccccc1)NO at 0.4 µM", "A101D": 142, "IST-MEL1": 69.9, "MeWo": 89.5, "SK-MEL-28": 163, "WM3619": 133, "A2058": 96.3, "COLO 829": 202, "WM1716": 119}
{"second drug": "COc1ccc(-c2ccc3c(N4CCOCC4)nc(N4C[C@@H](C)O[C@@H](C)C4)nc3n2)cc1CO at 0.1 µM", "A101D": 40.7, "IST-MEL1": 58.0, "MeWo": 104, "SK-MEL-28": 167, "WM3619": 203, "A2058": 164, "COLO 829": 26.6, "WM1716": 113}
{"second drug": "C=C(c1ccc(C(=O)O)cc1)c1cc2c(cc1C)C(C)(C)CCC2(C)C at 10 µM", "A101D": 81.0, "IST-MEL1": 105, "MeWo": 53.5, "SK-MEL-28": 199, "WM3619": 145, "A2058": 156, "COLO 829": 244, "WM1716": 22.8}
{"second drug": "C=CCn1c(=O)c2cnc(Nc3ccc(N4CCN(C)CC4)cc3)nc2n1-c1cccc(C(C)(C)O)n1 at 0.1 µM", "A101D": 152, "IST-MEL1": 46.1, "MeWo": 54.3, "SK-MEL-28": 337, "WM3619": 191, "A2058": 170, "COLO 829": 23.7, "WM1716": 130}
{"second drug": "Cc1cc(Nc2cc(N3CCN(C)CC3)nc(/C=C/c3ccccc3)n2)n[nH]1 at 0.2 µM", "A101D": 260, "IST-MEL1": 48.6, "MeWo": 135, "SK-MEL-28": 199, "WM3619": 117, "A2058": 215, "COLO 829": 119, "WM1716": 47.7}